Values of other authors in US11504319B2, “Process of coloring keratinous material comprising the use of an organosilicon compound, an effect pigment, a further coloring compound and a film-forming polymer III” (Henkel AG & Co. KGaA, priority 2019, dated 2022).

Details: 25° C.

Structure (SMILES): CCN(Cc1cccc(S(=O)(=O)[O-])c1)c1ccc(C(=C2C=CC(=[N+](CC)Cc3cccc(S(=O)(=O)[O-])c3)C=C2)c2ccccc2S(=O)(=O)[O-])cc1.[Na+].[Na+] [Acid Blue 9]
- solubility in water: more than 20 % by weight
